Laboratory results: publication doi:10.1101/2021.12.01.470723
Results are given in words; binding and its absence hold for the method and conditions named. Some entries that bind do so weakly or less than the wild type.

Experiments:
[1] = biological target: rh NT*-Bri2 BRICHOS T206W (human) (UniProt Q9Y287); experiment: SEC
[2] = biological target: rh NT*-Bri2 BRICHOS D148N (human) (UniProt Q9Y287); experiment: SEC

Substance: rh NT*-Bri2 BRICHOS T206W (from UniProt Q9Y287 113-231) (domain or fragment)
- binding [1]: binds

Substance: rh NT*-Bri2 BRICHOS D148N (from UniProt Q9Y287 113-231) (domain or fragment)
- binding [2]: binds
